The values that follow come from article PMC3979765.

Sequences of proteins named here, by UniProt entry; tags and fusion partners are left off.
UniProt Q9NYA1: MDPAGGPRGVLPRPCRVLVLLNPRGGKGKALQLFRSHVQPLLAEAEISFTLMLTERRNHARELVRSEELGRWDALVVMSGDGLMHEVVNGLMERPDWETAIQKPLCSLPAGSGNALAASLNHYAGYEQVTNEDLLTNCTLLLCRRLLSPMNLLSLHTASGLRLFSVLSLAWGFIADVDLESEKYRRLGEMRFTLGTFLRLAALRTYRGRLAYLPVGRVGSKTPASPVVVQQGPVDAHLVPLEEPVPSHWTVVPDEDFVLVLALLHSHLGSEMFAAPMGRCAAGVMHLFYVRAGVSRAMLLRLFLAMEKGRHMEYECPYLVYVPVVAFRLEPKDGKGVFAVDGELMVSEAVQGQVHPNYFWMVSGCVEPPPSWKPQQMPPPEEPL

The experiment has as its target Recombinant purified His-SphK1 (UniProt Q9NYA1). Description: pull-down; purified Memo or myc-Memo (2 μg) incubated with or without purified His-SphK1 (2 μg) for 16 h at 4°C in 50 mM Tris pH 7.5, 100 mM NaCl, 1 mM EDTA, 0.1% NP-40, 10% glycerol, 20 mM imidazole; Ni-NTA agarose 90 min at 4°C; western blot; both purified. In general terms: A western blot detects proteins with antibodies after separation by electrophoresis.

No constants are given. Whether binding was seen depends on the method and setting. Where a sequence is shown, tags or fusion partners need not be part of it.

B1: Recombinant purified Memo (protein, UniProt Q9Y316 1-297)
chain: MSNRVVCREASHAGSWYTASGPQLNAQLEGWLSQVQSTKRPARAIIAPHAGYTYCGSCAAHAYKQVDPSITRRIFILGPSHHVPLSRCALSSVDIYRTPLYDLRIDQKIYGELWKTGMFERMSLQTDEDEHSIEMHLPYTAKAMESHKDEFTIIPVLVGALSESKEQEFGKLFSKYLADPSNLFVVSSDFCHWGQRFRYSYYDESQGEIYRSIEHLDKMGMSIIEQLDPVSFSNYLKKYHNTICGRHPIGVLLNAITELQKNGMNMSFSFLNYAQSSQCRNWQDSSVSYAAGALTVH
With B1, the binding result is given as “no binding (tested: 2 μg of each protein)”.

B2: Recombinant purified myc-Memo (protein, UniProt Q9Y316 1-297)
chain: B1 chain
On to B2, for which the binding result is “no binding (tested: 2 μg of each protein)”.
